Source: patent US20200056157A1, “LIVER ORGANOID DISEASE MODELS AND METHODS OF MAKING AND USING SAME” (Children's Hospital Medical Center, priority 2016, published 2020)
At least one structure is not confirmed: it was looked up by name or label, or the drawing left a doubt.

Legend:
[1] = tested on: human iPSC-liver organoid; test: Albumin ELISA of organoid culture supernatant; format: cell-based; details: 4 days RA; supernatant collected in 24 hrs
Protocol: Albumin, IL-6, and P3NP ELISA. To measure albumin secretion level of HLO, 200 μL of culture supernatant was collected from HLO embedded in Matrigel. For IL-6 and P3NP, 20-30 organoids were seeded and cultured on an ultra-low attachment multiwell plates 96 well plate (Corning). To define the exact number of organoids in each well and lastly normalize the secreted level for IL-6 and P3NP by the number, the organoids were captured on The KEYENCE BZ-X710 Fluorescence Microscope. The culture supernatants were collected at 24 hrs (for albumin), 96 hrs (for IL-6) and 120 hrs (P3NP) time points after the culture and stored at −80° C. until use. The supernatant was centrifuged at 1,500 rpm for 3 min and to pellet debris, and the resulting supernatant was assayed with Human Albumin ELISA Quantitation Set (Bethyl Laboratories, Inc., TX, USA), Human IL-6 ELISA Kit (Biolegend, CA, USA), and Human N-terminal procollagen III propeptide, PIIINP ELISA Kit (My BioSource, CA, USA) according to the manufacturer's instructions. Significance testing was conducted by Student's t-test.

iPSC-sHLO = test: OCA response of iPSC-sHLO grouped by polygenic score; format: cell-based, human; details: iPSC lines with different polygenic score (PNPLA3, GCKR, TM6SF2)

| Compound | albumin secretion, change compared with untreated [1] | OCA response among cell lines (iPSC-sHLO) |
| --- | --- | --- |
| CC1=C(/C=C/C(C)=C/C=C/C(C)=C/C(=O)O)C(C)(C)CCC1 [RA, retinoic acid] | increased two-fold | – |
| CC[C@H]1[C@@H](O)[C@@H]2[C@H](CC[C@]3(C)[C@@H]([C@H](C)CCC(=O)O)CC[C@@H]23)[C@@]2(C)CC[C@@H](O)C[C@@H]12 [OCA] | – | differ among the cell line |
